Experimental data reported in PMC12238680.
These are yes or no findings as the source states them, for the method shown. In cells and extracts the contact can be indirect. Here binding means that the protein was enriched with, or labelled near, the bait; the list need not be complete.

Chains of the proteins cited; added tags and fusions are not shown.
UniProt Q16630: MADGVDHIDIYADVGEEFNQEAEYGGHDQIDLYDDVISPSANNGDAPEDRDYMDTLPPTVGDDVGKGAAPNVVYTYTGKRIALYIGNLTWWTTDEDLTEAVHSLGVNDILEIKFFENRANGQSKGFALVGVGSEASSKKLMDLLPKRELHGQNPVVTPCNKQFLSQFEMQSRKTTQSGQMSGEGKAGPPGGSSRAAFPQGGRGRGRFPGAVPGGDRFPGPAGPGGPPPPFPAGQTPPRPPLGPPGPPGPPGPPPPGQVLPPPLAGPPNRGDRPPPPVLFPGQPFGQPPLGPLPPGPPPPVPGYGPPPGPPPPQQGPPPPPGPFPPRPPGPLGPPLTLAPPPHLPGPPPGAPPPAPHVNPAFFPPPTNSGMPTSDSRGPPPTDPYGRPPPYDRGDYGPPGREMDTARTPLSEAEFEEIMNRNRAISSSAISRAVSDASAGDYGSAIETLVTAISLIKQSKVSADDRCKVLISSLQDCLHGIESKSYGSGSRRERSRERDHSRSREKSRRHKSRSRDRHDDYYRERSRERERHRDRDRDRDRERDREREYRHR
UniProt Q9Y6M1: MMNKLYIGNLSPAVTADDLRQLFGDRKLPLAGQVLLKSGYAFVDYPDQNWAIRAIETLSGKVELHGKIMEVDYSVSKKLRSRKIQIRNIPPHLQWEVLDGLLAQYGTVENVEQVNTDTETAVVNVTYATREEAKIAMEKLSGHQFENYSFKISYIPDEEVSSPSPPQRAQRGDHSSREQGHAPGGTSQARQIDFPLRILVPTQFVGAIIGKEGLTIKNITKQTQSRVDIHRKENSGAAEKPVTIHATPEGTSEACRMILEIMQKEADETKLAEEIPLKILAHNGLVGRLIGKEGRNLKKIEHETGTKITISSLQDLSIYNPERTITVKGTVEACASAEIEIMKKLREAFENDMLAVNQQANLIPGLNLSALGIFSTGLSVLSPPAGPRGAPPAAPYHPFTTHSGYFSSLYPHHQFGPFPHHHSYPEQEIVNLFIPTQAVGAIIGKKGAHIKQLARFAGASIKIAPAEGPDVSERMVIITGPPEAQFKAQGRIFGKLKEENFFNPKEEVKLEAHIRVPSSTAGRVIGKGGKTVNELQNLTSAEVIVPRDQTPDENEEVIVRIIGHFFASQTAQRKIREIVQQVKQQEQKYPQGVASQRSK
UniProt O00425: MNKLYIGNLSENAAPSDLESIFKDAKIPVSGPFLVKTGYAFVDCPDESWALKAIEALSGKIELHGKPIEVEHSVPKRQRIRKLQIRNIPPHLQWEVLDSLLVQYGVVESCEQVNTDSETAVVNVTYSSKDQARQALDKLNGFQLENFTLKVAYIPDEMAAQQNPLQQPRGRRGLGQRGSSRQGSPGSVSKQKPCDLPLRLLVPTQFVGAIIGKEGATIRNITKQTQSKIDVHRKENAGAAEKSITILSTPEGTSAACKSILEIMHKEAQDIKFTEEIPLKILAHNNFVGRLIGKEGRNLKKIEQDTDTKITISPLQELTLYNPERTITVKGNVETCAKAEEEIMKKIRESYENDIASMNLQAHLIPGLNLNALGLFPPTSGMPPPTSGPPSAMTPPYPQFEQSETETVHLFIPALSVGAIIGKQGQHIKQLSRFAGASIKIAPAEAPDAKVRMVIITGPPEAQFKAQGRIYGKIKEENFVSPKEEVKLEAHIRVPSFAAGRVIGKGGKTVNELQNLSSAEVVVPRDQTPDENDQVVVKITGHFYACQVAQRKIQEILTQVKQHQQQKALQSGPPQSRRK
UniProt O75494: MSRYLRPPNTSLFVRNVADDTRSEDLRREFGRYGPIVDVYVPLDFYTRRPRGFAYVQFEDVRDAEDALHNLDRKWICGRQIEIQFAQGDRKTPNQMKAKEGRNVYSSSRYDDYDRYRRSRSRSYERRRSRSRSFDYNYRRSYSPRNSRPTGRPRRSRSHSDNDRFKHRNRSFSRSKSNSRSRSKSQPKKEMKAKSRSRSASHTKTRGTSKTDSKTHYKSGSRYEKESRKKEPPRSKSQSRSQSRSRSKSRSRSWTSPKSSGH

Each molecule was assayed against CPSF6 (human (endogenous in HeLa, A2780, OVCAR3, SKOV3)) (UniProt Q16630) (assay: affinity purification with mass spectrometry; IP of endogenous CPSF6 (rabbit polyclonal antibody) from OVCAR3 lysate with or without RNase A (200 ng/mL); proteins common to both).

Row | binding | Molecule
1 | binds | IGF2BP2 (from UniProt Q9Y6M1 1-599)
2 | binds | IGF2BP3 (from UniProt O00425 1-579)
3 | binds | SRSF10 (from UniProt O75494 1-262)
4 | binds | TRA2B (protein, UniProt P62995 1-288) MSDSGEQNYGERESRSASRSGSAHGSGKSARHTPARSRSKEDSRRSRSKSRSRSESRSRSRRSSRRHYTRSRSRSRSHRRSRSRSYSRDYRRRHSHSHSPMSTRRRHVGNRANPDPNCCLGVFGLSLYTTERDLREVFSKYGPIADVSIVYDQQSRRSRGFAFVYFENVDDAKEAKERANGMELDGRRIRVDFSITKRPHTPTPGIYMGRPTYGSSRRRDYYDRGYDRGYDDRDYYSRSYRGGGGGGGGWRAAQDRDQIYRRRSPSPYYSRGGYRSRSRSRSYSPRRY
5 | binds | CPSF7 (protein, UniProt Q8N684 1-471) MSEGVDLIDIYADEEFNQDPEFNNTDQIDLYDDVLTATSQPSDDRSSSTEPPPPVRQEPSPKPNNKTPAILYTYSGLRNRRAAVYVGSFSWWTTDQQLIQVIRSIGVYDVVELKFAENRANGQSKGYAEVVVASENSVHKLLELLPGKVLNGEKVDVRPATRQNLSQFEAQARKRECVRVPRGGIPPRAHSRDSSDSADGRATPSENLVPSSARVDKPPSVLPYFNRPPSALPLMGLPPPPIPPPPPLSSSFGVPPPPPGIHYQHLMPPPPRLPPHLAVPPPGAIPPALHLNPAFFPPPNATVGPPPDTYMKASAPYNHHGSRDSGPPPSTVSEAEFEDIMKRNRAISSSAISKAVSGASAGDYSDAIETLLTAIAVIKQSRVANDERCRVLISSLKDCLHGIEAKSYSVGASGSSSRKRHRSRERSPSRSRESSRRHRDLLHNEDRHDDYFQERNREHERHRDRERDRHH
